Measurements: patent US5932575A, “Cardiac diseases improving agents” (Kureha Chemical Industry Co., Ltd., priority 1997, dated 1999)
Some results were stated once for a whole list of compounds, not compound by compound.

Tested on: ICR mice
Assay: Acute toxicity (oral, single dose)
Format: in vivo
Experimental: Female 5-week-old ICR mice were divided to groups each having five animals and acclimated for a week. Compound Nos. 1-3, 7, 8, 11 and 13 each was dissolved or dispersed in 0.5% methylcelulose aqueous solution, respectively, and orally administered once at a dose of 500 mg/kg, then the number of dead animals was counted after six days.

[1] = 500 mg/kg oral once, 0.5% methylcellulose, after six days

Structure (SMILES) | number of dead animals [1] | number of dead animals (mouse, in vivo)
CCCCC(=O)N(Cc1ccc(C(=O)OCCCN)cc1)c1cc(C(=O)N2CCOCC2)ccc1N(C)C [Compound No. 2, 3-N-[[[4-(3'-aminopropoxycarbonyl)phenyl]methyl]valeramido]-4-dimethylaminobenzoic acid morpholide] | No dead animals was found | –
CCCCC(=O)N(Cc1ccc(C(=O)OC[C@H](N)C(=O)OCC)cc1)c1cc(C(=O)N2CCOCC2)ccc1N(C)C [Compound No. 3, 3-N-[[[[4-(2'-amino-2'-ethoxycarbonyl)ethoxycarbonyl]phenyl]methyl]-valeramido]-4-dimethylaminobenzoic acid morpholide] | No dead animals was found | –
CCCCC(=O)N(Cc1ccc(C(=O)OCCN(C)C)cc1)c1cc(C(=O)N2CCOCC2)ccc1N(C)C [Compound No. 1, 4-dimethylamino-3-N-[[[4-(2'-dimethylaminoethoxycarbonyl)phenyl]-methyl]valeramido]benzoic acid morpholide] | – | No dead animals was found
